Substitutions are numbered along the chain they refer to. Results are given in words; binding and its absence hold for the method and conditions named. In cells and extracts the contact can be indirect. Some results given as binding are weak or reduced against the parent protein; the word gives no strength. Tags and fused reporters may be left off the sequences shown.
Key:
Assay in all cases: co-IP
[1] = target: T1, UPF1-GFP VLLF mutant (V93A, L100A, L103A, F105A) (human) (UniProt Q92900)
T1 sequence: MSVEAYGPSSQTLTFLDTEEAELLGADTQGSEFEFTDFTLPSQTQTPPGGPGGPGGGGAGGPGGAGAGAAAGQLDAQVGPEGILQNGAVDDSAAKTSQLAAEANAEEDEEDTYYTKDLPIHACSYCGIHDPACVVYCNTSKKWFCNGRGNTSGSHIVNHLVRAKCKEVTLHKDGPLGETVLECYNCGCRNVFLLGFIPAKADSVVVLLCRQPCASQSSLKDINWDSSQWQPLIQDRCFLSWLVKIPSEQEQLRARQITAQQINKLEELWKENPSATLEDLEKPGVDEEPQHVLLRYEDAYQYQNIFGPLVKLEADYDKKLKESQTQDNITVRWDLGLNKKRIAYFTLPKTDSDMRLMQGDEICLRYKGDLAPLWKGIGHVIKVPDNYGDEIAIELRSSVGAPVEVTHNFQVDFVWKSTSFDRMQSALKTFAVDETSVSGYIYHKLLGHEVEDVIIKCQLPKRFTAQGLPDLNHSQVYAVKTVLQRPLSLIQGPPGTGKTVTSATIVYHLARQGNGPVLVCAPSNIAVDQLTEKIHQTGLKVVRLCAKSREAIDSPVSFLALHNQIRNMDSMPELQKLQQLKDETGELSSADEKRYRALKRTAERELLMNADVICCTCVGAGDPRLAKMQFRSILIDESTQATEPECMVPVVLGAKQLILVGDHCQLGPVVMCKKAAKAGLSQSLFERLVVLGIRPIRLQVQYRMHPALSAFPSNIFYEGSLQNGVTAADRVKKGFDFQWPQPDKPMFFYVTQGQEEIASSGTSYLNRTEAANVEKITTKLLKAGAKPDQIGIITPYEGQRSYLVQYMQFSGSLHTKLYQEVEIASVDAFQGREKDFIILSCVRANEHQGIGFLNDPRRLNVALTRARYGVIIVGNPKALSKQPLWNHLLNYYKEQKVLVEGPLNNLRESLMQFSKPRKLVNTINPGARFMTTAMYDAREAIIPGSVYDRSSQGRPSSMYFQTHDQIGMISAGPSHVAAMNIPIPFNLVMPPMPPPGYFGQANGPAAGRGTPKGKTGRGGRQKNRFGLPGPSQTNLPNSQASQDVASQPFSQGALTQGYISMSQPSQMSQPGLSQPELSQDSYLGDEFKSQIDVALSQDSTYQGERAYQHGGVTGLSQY

Protein sequences, listed by entry. Tags and fused reporters are not part of them.
UniProt P04406: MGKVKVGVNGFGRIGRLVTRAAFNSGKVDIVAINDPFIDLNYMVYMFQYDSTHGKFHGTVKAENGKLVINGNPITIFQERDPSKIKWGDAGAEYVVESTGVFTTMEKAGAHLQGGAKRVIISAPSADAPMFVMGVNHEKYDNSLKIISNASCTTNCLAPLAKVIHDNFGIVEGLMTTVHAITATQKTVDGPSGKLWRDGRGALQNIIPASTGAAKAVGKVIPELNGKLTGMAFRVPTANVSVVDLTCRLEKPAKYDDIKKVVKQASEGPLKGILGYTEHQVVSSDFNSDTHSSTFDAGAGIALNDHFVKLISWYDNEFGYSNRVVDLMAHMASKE
UniProt Q86US8: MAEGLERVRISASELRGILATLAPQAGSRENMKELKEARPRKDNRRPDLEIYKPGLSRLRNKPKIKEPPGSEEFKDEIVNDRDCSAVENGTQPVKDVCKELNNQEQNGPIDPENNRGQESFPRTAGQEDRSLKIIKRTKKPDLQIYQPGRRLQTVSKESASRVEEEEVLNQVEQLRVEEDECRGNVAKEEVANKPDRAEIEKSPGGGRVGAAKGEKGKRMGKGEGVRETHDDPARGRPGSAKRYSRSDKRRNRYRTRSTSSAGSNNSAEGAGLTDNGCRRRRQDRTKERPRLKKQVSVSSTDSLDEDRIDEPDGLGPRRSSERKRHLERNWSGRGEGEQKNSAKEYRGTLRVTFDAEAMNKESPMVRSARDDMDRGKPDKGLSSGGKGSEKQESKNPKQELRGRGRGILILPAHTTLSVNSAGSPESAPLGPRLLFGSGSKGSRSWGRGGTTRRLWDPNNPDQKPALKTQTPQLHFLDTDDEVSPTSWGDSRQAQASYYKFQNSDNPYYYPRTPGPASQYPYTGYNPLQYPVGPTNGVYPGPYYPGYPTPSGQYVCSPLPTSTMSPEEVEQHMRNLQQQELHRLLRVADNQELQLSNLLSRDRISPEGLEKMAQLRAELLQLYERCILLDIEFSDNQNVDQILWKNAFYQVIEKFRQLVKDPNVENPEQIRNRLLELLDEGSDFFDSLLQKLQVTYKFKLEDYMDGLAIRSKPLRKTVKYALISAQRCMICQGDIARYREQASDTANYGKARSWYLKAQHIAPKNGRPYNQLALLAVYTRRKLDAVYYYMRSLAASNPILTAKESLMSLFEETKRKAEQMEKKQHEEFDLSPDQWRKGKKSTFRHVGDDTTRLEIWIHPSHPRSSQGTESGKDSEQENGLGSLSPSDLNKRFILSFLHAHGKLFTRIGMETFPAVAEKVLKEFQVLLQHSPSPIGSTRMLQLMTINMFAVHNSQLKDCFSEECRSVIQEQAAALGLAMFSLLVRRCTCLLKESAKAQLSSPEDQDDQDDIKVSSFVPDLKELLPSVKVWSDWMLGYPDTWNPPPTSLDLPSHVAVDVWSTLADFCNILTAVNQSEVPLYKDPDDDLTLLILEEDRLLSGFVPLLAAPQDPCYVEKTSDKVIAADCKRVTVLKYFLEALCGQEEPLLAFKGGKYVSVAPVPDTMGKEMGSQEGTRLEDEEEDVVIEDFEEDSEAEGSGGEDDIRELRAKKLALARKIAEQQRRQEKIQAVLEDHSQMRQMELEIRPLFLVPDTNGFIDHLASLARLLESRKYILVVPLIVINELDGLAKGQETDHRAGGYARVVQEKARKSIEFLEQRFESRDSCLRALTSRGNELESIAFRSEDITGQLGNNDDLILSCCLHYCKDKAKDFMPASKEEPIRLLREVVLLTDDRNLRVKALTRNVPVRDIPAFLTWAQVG
UniProt Q9HAU5: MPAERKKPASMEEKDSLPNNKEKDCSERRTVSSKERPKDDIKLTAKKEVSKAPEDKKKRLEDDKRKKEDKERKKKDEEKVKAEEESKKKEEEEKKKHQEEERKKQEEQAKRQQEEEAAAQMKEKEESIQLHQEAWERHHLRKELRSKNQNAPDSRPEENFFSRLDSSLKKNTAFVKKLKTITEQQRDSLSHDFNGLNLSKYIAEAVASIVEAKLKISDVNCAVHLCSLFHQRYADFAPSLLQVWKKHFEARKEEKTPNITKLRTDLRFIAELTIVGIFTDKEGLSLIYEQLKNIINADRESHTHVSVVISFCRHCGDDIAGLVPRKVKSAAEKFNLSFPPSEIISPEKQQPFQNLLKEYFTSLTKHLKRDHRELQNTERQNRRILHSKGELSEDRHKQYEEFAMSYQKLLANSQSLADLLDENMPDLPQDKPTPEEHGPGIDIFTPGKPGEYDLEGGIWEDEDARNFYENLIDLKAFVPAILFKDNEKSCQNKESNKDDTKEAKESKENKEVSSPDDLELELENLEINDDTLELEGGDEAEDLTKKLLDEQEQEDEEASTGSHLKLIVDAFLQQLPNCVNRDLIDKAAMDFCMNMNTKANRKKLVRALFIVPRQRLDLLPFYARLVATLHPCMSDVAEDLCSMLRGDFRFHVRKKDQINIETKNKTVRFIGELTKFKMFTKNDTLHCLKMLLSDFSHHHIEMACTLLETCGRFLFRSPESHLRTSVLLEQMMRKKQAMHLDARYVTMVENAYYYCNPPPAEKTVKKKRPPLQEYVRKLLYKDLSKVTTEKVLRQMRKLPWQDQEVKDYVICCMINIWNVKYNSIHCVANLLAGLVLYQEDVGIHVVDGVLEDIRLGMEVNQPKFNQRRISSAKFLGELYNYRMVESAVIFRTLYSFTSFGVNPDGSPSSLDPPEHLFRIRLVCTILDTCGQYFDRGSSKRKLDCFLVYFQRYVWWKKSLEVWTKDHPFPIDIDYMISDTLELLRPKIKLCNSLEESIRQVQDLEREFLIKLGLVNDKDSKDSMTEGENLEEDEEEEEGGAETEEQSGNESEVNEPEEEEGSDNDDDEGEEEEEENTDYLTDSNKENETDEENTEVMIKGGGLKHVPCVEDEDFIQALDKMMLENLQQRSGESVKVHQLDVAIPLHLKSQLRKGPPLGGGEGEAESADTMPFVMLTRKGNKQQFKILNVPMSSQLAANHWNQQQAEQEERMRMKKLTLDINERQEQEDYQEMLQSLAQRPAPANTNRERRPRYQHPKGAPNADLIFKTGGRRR

[2] = target: T2, UPF1-GFP LF mutant (L103A, F105A) (human) (UniProt Q92900)
T2 sequence: T1 sequence with A93V, A100L

[3] = target: T3, UPF1-GFP wild type (UPF1 isoform 2 fused to enhanced GFP) (human) (UniProt Q92900)
T3 sequence: T1 sequence with A93V, A100L, A103L, A105F

Substance: GAPDH (from UniProt P04406 1-335)
- binding [1]: no binding
- binding [2]: no binding
- binding [3]: no binding

Substance: SMG6 (from UniProt Q86US8 1-1419)
- binding [1]: binds
- binding [2]: binds
- binding [3]: binds

Substance: UPF2 (from UniProt Q9HAU5 1-1272)
- binding [1]: binds
- binding [2]: binds
- binding [3]: binds

Source: paper doi:10.1101/2021.08.02.454737
